At least one read-out could not be matched to a standard name with certainty.
Test: Aqueous solubility of sildenafil mesylate
Format: physicochemical
Conditions: using solubility enhancing agents (caffeine, nicotinamide, vanillin, benzyl alcohol)
Protocol: Preferred as solubility enhancing agents are caffeine (preferably at a concentration of from 1.0 to 2.5% weight/vol); nicotinamide (preferably 3.0 to 20.0% weight/vol); vanillin (preferably 0.5 to 2.5% weight/vol); and benzyl alcohol (preferably 0.5 to 2.5% weight/vol). A combination of nicotinamide and vanillin is also preferred. By using such solubility enhancing agents, it is possible to increase the solubility of sildenafil mesylate in water from approximately 60 mg/ml to in excess of 100 mg/ml. This allows a more concentrated solution to be administered facilitating a rapid onset of action and reducing irritancy. One particular and preferred formulation comprises sildenafil mesylate 100 mg/ml and caffeine 15 mg/ml in a buffered aqueous solution. The pH of the solution is preferably adjusted to pH 3-5, preferably to pH 4.2 by the addition of a base e.g. sodium hydroxide.

## 5-[2-ethoxy-5-(4-methylpiperazin-1-ylsulphonyl)phenyl]-1,6-dihydro-1-methyl-3-propylpyrazolo[4,3-d]pyrimidin-7-one)methanesulphonate salt [sildenafil mesylate]
  solubility in water with solubility enhancing agents: > 100 mg/mL
